Laboratory results from publication PMC6679547.
No constants are given. Whether binding was seen depends on the method and setting. In cells and extracts the contact can be indirect. For some assays here: Binding can be weak; no strength is given.

Amino acid sequences for entries named in this document (tags omitted). A change or cut given only in a name is not applied to a line headed by its entry.
UniProt Q9BVL2: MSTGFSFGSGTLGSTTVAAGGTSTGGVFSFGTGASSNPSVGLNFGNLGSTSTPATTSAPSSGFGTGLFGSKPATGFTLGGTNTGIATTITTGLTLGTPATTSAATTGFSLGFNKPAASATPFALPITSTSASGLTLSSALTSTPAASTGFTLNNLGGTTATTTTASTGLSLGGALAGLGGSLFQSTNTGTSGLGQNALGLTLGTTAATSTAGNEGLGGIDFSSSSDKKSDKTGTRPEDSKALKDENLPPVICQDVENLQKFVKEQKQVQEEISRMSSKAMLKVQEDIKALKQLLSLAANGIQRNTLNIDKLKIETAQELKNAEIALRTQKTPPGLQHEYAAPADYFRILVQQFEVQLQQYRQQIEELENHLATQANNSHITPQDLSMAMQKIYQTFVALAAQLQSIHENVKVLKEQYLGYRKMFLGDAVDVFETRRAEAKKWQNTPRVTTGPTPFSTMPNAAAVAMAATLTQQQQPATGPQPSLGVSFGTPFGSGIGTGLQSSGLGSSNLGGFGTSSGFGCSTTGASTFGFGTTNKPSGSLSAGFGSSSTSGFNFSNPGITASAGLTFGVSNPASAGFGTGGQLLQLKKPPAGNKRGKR
UniProt P23258: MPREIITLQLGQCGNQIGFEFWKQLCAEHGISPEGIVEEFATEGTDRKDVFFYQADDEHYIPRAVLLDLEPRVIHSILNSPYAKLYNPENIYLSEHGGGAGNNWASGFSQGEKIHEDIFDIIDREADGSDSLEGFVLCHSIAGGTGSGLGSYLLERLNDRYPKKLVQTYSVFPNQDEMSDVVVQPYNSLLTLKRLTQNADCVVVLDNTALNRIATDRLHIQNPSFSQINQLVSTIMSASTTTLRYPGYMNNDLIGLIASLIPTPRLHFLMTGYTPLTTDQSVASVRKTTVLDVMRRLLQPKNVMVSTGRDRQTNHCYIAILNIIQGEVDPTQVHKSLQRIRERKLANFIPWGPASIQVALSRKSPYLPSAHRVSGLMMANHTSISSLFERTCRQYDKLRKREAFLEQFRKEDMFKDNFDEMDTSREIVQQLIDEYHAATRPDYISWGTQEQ

Experiments:
[1] = biological target: Nucleoporin Nup58 (human (endogenous in HeLa)) (UniProt Q9BVL2); test: co-IP; interphase HeLa cell extracts precipitated with anti-Nup58 (control: nonspecific rabbit IgG); SDS-PAGE and immunoblotting
[2] = biological target: Nucleoporin Nup58 (human (endogenous in HeLa)) (UniProt Q9BVL2); test: co-IP; mitotic HeLa cell extracts precipitated with anti-Nup58 (control: nonspecific rabbit IgG), protein A/G beads, 1 h at 4 °C; lysis and wash buffer 50 mM Tris-HCl pH 7.2, 250 mM NaCl, 0.1% Nonidet P-40, 2 mM EDTA, 10% glycerol; immunoblotting

- binding [2]: binds
Substance: γ-tubulin (from UniProt P23258)
- binding [1]: no binding (only interphase HeLa cell extracts)
